Results deposited as PubChem BioAssay AID1671195 (Yale University, 2021).
The deposit covers about 22,000 reagents; this is a part drawn at random. About 1,510 of them (6.9%) were called active. 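Active includes knockdowns raising or lowering LDL uptake; positive z-scores mean more uptake, negative mean less.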

Purpose: 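Regulators of LDL receptor activity judged by labelled LDL uptake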 (primary screen)
Cell system: human Huh7 hepatoma cells
Reagent: siRNA pool against human genes, 18 nM
Timing: about 2 to 2.5 days of knockdown, then 8 h LDL uptake
Treatment: DiI-labelled LDL at 30 µg/ml for 8 h, in lipoprotein-deficient serum medium
Measured: 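Fluorescent LDL signal imaged in cells, scaled to the plate median, robust z-score for each replicate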
Scale: robust z-score: higher = more LDL uptake after knockdown
Call rule: 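a gene counts as active if at least two replicate z-scores exceed ±2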

gene | robust z-score, replicate 1 | robust z-score, replicate 2 | robust z-score, replicate 3 | Call
LPAR1 (GeneID 1902) | -0.376 | -0.164 | -0.12 | inactive
GAPDHP24 (GeneID 391162) | 0.104 | -0.0542 | -0.158 | inactive
CKAP2L (GeneID 150468) | -0.363 | -1.03 | 0.0805 | inactive
SIPA1L2 (GeneID 57568) | -0.673 | -0.0164 | -0.388 | inactive
INTS5 (GeneID 80789) | -1.1 | -0.284 | -1.21 | inactive
VMA12 (GeneID 147007) | 0.737 | 1.49 | 1.06 | inactive
IL1R1 (GeneID 3554) | 0.6 | -0.0762 | 0.124 | inactive
PGD (GeneID 5226) | -0.318 | 0.484 | -0.201 | inactive
RBM20 (GeneID 282996) | -0.355 | -0.567 | -0.438 | inactive
ENC1 (GeneID 8507) | -0.817 | 0.151 | -0.949 | inactive
EPRS1 (GeneID 2058) | 0.562 | 0.449 | 0.688 | inactive
MYRIP (GeneID 25924) | 1.62 | 1.38 | 2.45 | inactive
JTB (GeneID 10899) | -0.557 | 0.215 | -1.48 | inactive
GAGE1 (GeneID 2543) | 0.18 | 0.667 | 0.299 | inactive
ALLC (GeneID 55821) | 0.286 | -0.00144 | 0.391 | inactive
MARK4 (GeneID 57787) | 0.135 | 0.0858 | 0.258 | inactive
TMEM89 (GeneID 440955) | -0.789 | -0.752 | -0.331 | inactive
LOC441336 (retired record) (GeneID 441336) | 0.593 | 0.231 | 0.124 | inactive
LOC283166 (retired record) (GeneID 283166) | 0.0816 | 0.297 | 0.381 | inactive
SPDEF (GeneID 25803) | -0.463 | -0.568 | -0.272 | inactive
LINC00517 (GeneID 400208) | 0.684 | 0.441 | -0.122 | inactive
AGO1 (GeneID 26523) | 2.54 | 2.17 | 2.58 | active
HDAC11 (GeneID 79885) | -0.173 | -0.0643 | -0.751 | inactive
PPP1R12BP1 (GeneID 360021) | -0.304 | 0.286 | -0.549 | inactive
OR4A47 (GeneID 403253) | 0.996 | 0.832 | 0.468 | inactive
RUVBL2 (GeneID 10856) | 0.131 | 0.295 | -0.869 | inactive
CCT3 (GeneID 7203) | 0.00493 | 0.0711 | 0.144 | inactive
TFF2 (GeneID 7032) | 0.792 | 1.23 | 1.56 | inactive
PRED4 (retired record) (GeneID 400858) | 2.4 | 1.11 | 1.55 | inactive
DMAC2 (GeneID 55101) | 0.564 | 0.00297 | 1.47 | inactive
ZDHHC13 (GeneID 54503) | -0.384 | -0.949 | 0.23 | inactive
DNER (GeneID 92737) | 0.00575 | 0.373 | -0.162 | inactive
AMPD1 (GeneID 270) | -0.801 | -0.595 | 0.108 | inactive
KIFAP3 (GeneID 22920) | 0.1 | 0.64 | 0.223 | inactive
FHL3 (GeneID 2275) | 1.79 | 0.919 | 1.12 | inactive
OR10H1 (GeneID 26539) | -2.35 | -0.487 | -1.76 | inactive
S100B (GeneID 6285) | -2.6 | -2.46 | -2.73 | active
MMACHC (GeneID 25974) | 1.38 | -1.19 | 1.22 | inactive
PGAP1 (GeneID 80055) | 1.74 | 1.06 | 0.937 | inactive
ERCC3 (GeneID 2071) | -0.488 | -0.247 | -0.433 | inactive
PLEKHH1 (GeneID 57475) | 0.708 | -0.745 | -0.222 | inactive
FCGR2A (GeneID 2212) | 0.00642 | 0.243 | -0.0633 | inactive
TASL (GeneID 80231) | 0.667 | 0.163 | 0.103 | inactive
SEC23B (GeneID 10483) | 0.815 | 0.968 | 0.974 | inactive
DBR1 (GeneID 51163) | 0.415 | 0.358 | 0.964 | inactive
SMARCD1 (GeneID 6602) | 1.15 | 2.36 | 0.608 | inactive
UBFD1 (GeneID 56061) | -0.246 | 0.989 | -1.03 | inactive
LINC00692 (GeneID 285326) | -0.0857 | -0.0932 | -0.213 | inactive
LOC390258 (retired record) (GeneID 390258) | -1.41 | -1.06 | -1.31 | inactive
LOC440064 (retired record) (GeneID 440064) | 2.23 | 1.64 | 1.43 | inactive
LOC401021 (GeneID 401021) | -1.08 | -1.24 | -1.08 | inactive
PCSK2 (GeneID 5126) | 0.367 | -0.435 | -0.21 | inactive
ADARB2 (GeneID 105) | -1.99 | -2.6 | -2.22 | active
C1orf174 (GeneID 339448) | -0.709 | -0.722 | -0.539 | inactive

Laid out differently: results already given
gene,"robust z-score, replicate 1","robust z-score, replicate 2","robust z-score, replicate 3",Call
ZDHHC13 (GeneID 54503),-0.384,-0.949,0.23,inactive
DNER (GeneID 92737),0.00575,0.373,-0.162,inactive
AMPD1 (GeneID 270),-0.801,-0.595,0.108,inactive
KIFAP3 (GeneID 22920),0.1,0.64,0.223,inactive
FHL3 (GeneID 2275),1.79,0.919,1.12,inactive
OR10H1 (GeneID 26539),-2.35,-0.487,-1.76,inactive
S100B (GeneID 6285),-2.6,-2.46,-2.73,active
MMACHC (GeneID 25974),1.38,-1.19,1.22,inactive
PGAP1 (GeneID 80055),1.74,1.06,0.937,inactive
ERCC3 (GeneID 2071),-0.488,-0.247,-0.433,inactive
PLEKHH1 (GeneID 57475),0.708,-0.745,-0.222,inactive
FCGR2A (GeneID 2212),0.00642,0.243,-0.0633,inactive
TASL (GeneID 80231),0.667,0.163,0.103,inactive

The list goes on:
gene | robust z-score, replicate 1 | robust z-score, replicate 2 | robust z-score, replicate 3 | Call
H3C2 (GeneID 8358) | 0.347 | 1.01 | 1.11 | inactive
ANGPTL2 (GeneID 23452) | 0.359 | 1.16 | 1.76 | inactive
LOC440771 (retired record) (GeneID 440771) | -1 | -1.26 | -0.931 | inactive
TNFRSF25 (GeneID 8718) | 1.98 | 0.841 | 2.26 | active
AFDN (GeneID 4301) | 0.955 | -0.0736 | 0.623 | inactive
SIGLEC15 (GeneID 284266) | 0.313 | 0.261 | 0.732 | inactive
DRAM2 (GeneID 128338) | 1.64 | 2.21 | 1.59 | inactive
L3MBTL3 (GeneID 84456) | 4.91 | 4.96 | 4.21 | active
ATP6V1G2 (GeneID 534) | 3.39 | 2.97 | 2.71 | active
OCM2 (GeneID 4951) | -0.17 | 0.172 | 0.358 | inactive
LAMC2 (GeneID 3918) | -0.861 | -0.494 | -0.47 | inactive
BPTF (GeneID 2186) | 4.63 | 1.97 | 4.1 | active
RHPN2 (GeneID 85415) | 0.583 | 0.104 | 0.552 | inactive
ATP5F1C (GeneID 509) | 1.26 | 0.54 | 1.27 | inactive
PCOTH (GeneID 542767) | -0.386 | 0.268 | 0.0983 | inactive
ARID4A (GeneID 5926) | 1.39 | 0.992 | 1.15 | inactive
ZNF253 (GeneID 56242) | -1.17 | -1.21 | -1.18 | inactive
DHCR7 (GeneID 1717) | -0.406 | 1.09 | 0.849 | inactive
ASTN2 (GeneID 23245) | 2.66 | 0.372 | 2.26 | active
ZNF799 (GeneID 90576) | 0.216 | 0.317 | 0.0594 | inactive
EIF3G (GeneID 8666) | -0.842 | 1.19 | -0.73 | inactive
DNAJB3P (GeneID 414061) | -0.549 | -0.406 | -0.533 | inactive
HLA-DRB4 (GeneID 3126) | 0.123 | -1.67 | -1 | inactive
PLAAT5 (GeneID 117245) | 1.06 | 1.95 | 1.7 | inactive
CDSN (GeneID 1041) | 0.667 | -0.228 | 2.98 | inactive
LOC285777 (retired record) (GeneID 285777) | -0.0583 | 0.14 | 0.298 | inactive
ZNF695 (GeneID 57116) | -0.165 | 0.8 | 0.375 | inactive
CHRNB4 (GeneID 1143) | -0.0713 | 0.612 | -0.206 | inactive
ADD1 (GeneID 118) | -0.101 | -0.545 | -0.886 | inactive
C3orf18 (GeneID 51161) | -1.56 | 0.349 | -1.76 | inactive
XTBD1P1 (GeneID 391169) | -0.821 | -0.859 | -0.873 | inactive
LOC401913 (GeneID 401913) | -1.23 | -1.17 | -1.73 | inactive
LOC389352 (retired record) (GeneID 389352) | -1.42 | -1.5 | -1.34 | inactive
